In the test the target is Staphylococcus aureus PriA helicase (S. aureus). Description: SPR; SaPriA immobilised on CM5 chip, Biacore T200, 293 K, 40 mM Tris, 200 mM NaCl, 0.05% Tween-20, pH 8.0; analyte injected 120 s at 30 uL/min; 1:1 (Langmuir) model; both purified. (In general: SPR reads the build-up and loss of mass on a sensor chip optically.)

No constants are given. Whether binding was seen depends on the method and setting.

NANGPIDISDDDLPF [SaSsbA-Ct peptide]: the binding result is “no binding (tested: 0.06 to 2 μM)”.

The values above are taken from article PMC5531588, “Staphylococcus aureus single-stranded DNA-binding protein SsbA can bind but cannot stimulate PriA helicase”.
